Tested on: A549
Assay: Cytotoxicity against human A549 cells
Type: functional, cell-based

**Q.** For `CC(=O)O[C@H]1C(=O)[C@@]2(C)[C@H]([C@H](OC(=O)c3ccccc3)[C@]3(O)C[C@H](OC(=O)[C@H](O)[C@@H](NC(=O)c4ccccc4)c4ccccc4)C(C)=C1C3(C)C)[C@]1(OC(C)=O)CO[C@@H]1C[C@@H]2O` [PACLITAXEL], which IC50 is on record?
**A.** The IC50 was 6.3 nM.

— ChEMBL document CHEMBL3734706, “Syntheses and biological evaluation of C-3'-N-acyl modified taxane analogues from 1-deoxybaccatin-VI” (Eur J Med Chem, 2015)
